PubChem BioAssay AID504791 – Drosophila RNAi Screening Center, 2011

- Aim: 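Genes of the fly required for silencing by miRNA, siRNA or endo-siRNA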 (primary screen)
- Cell system: Drosophila S2-derived reporter cells
- Knock-down reagent: long dsRNA against Drosophila genes, about 150-250 ng dsRNA per well (siRNA assay); about 80-120 ng (miRNA assay)
- Timing: about 5 days (siRNA assay); about 4 days (miRNA assay)
- Treatment: copper sulfate induction of reporters: 25 µM (siRNA assay); 200 mM stated (miRNA assay), 1-2 days before reading
- Read-out: 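Per-well ratio of Renilla over firefly light, expressed relative to that plate's average ratio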
- Scale: siRNA reporter hit score: higher = 3 marks a strong hit with raised ratio; -3 a strong hit with lowered ratio
- Rule for the call: 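a well was a first-pass pick when its plate-scaled ratio rose above 1.5 (siRNA assay) or 1.6 (miRNA assay), or dropped below 0.6; a gene counted only if two separate dsRNAs agreed on retest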
In all, the deposit lists about 23,000 reagents; shown is an unselected part of those that have a named target and a result. In the full data, 199 (0.86%) got an active call. 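Plate-scaled ratios behind the calls are not deposited; printed light signals are raw; many rows marked increased or decreased are still called inactive.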 A number with no mark means an inactive call. A plus sign joins genes that one reagent is predicted to hit.

| predicted target | amplicon | siRNA reporter hit score | stable siRNA reporter change | miRNA reporter change | stable assay Renilla, run 1 (luminescence) | stable assay firefly, run 1 (luminescence) |
| --- | --- | --- | --- | --- | --- | --- |
| dpr16 | DRSC12217 | – | – | – | 6176 | 4.58e5 |
| dpr16 | DRSC12249 | – | – | – | 4468 | 3.92e5 |
| EndoG | DRSC07292 | – | – | – | 6082 | 4.82e5 |
| EndoG | DRSC22746 | – | – | – | 3363 | 4.08e5 |
| COX7B | DRSC10895 | – | – | – | 7110 | 4.44e5 |
| Hakai | DRSC02031 | – | – | – | 8826 | 2.15e6 |
| Antdh | DRSC20307 | – | – | – | 4247 | 3.43e5 |
| Mrm2 | DRSC14310 | – | – | – | 7527 | 3.68e5 |
| CG4363 | DRSC04465 | – | – | – | 7348 | 4.07e5 |
| Sirup | DRSC03031 | – | – | – | 6886 | 3.68e5 |
| Reg-5 | DRSC04647 | – | – | – | 35180 | 2.32e6 |
| CG9686 | DRSC18439 | – | – | – | 4588 | 3.25e5 |
| CG15706 | DRSC06577 | – | – | – | 7212 | 3.69e5 |
| Dref | DRSC03319 | – | – | – | 42588 | 5.35e5 |
| RpLP2 | DRSC07539 | – | – | – | 7114 | 3.22e5 |
| RpLP2 | DRSC28510 | – | – | reporter ratio lowered past the hit cutoff | – | – |
| Erk7 | DRSC18127 | – | – | – | 4711 | 3.49e5 |
| Erk7 | DRSC18227 | – | – | – | 5504 | 3.50e5 |
| Erk7 | DRSC21895 | – | – | – | 10328 | 5.78e5 |
| yata | DRSC15408 | – | – | – | 6648 | 3.51e5 |
| rod | DRSC17047 | – | – | – | 7713 | 5.64e5 |
| CG14022 | DRSC02352 | – | – | – | 7031 | 3.92e5 |
| CG5214 | DRSC15739 | – | – | – | 4524 | 4.12e5 |
| CG5214 | DRSC22842 | – | – | – | 4011 | 3.99e5 |
| CG10969 | DRSC09811 | – | – | – | 5527 | 3.90e5 |
| CG6484 | DRSC06991 | – | – | – | 10936 | 4.12e5 |
| CG14957 | DRSC08416 | – | – | – | 7550 | 6.01e5 |
| CG31910 + snoRNA:Me28S-G2743 (retired record) | DRSC00946 | – | – | – | 5327 | 4.25e5 |
| vari | DRSC03202 | – | – | – | 6691 | 3.82e5 |
| CG15734 | DRSC19701 | – | – | – | 3723 | 2.89e5 |
| Dus2 | DRSC19591 | – | – | – | 8130 | 4.91e5 |
| Taz | DRSC07704 | – | – | – | 6150 | 4.81e5 |
| Taz | DRSC22625 | – | – | – | 3747 | 3.61e5 |
| E(z) | DRSC11147 | – | – | – | 9647 | 4.88e5 |
| Atox1 | DRSC22416 | – | – | – | 5459 | 5.28e5 |
| Tsp42Ej | DRSC06113 | – | – | – | 1.74e5 | 1.48e6 |
| Tak1 | DRSC20390 | – | – | – | 3975 | 3.88e5 |
| Tak1 | DRSC20561 | – | – | – | 6260 | 4.73e5 |
| Tak1 | DRSC20562 | – | – | – | 6380 | 5.36e5 |
| CG12347 | DRSC14502 | – | – | – | 7864 | 5.02e5 |
| Cpr65Av | DRSC09727 | – | – | – | 6726 | 4.96e5 |
| CG17760 | DRSC06694 | – | – | – | 7279 | 5.22e5 |
| Syx18 | DRSC14628 | – | – | – | 7486 | 3.07e5 |
| CG17283 | DRSC15219 | – | – | – | 7844 | 4.07e5 |
| eEF1delta | DRSC02790 | – | – | – | 16816 | 4.59e5 |
| CG11771 | DRSC14379 | – | – | reporter ratio raised past the hit cutoff | 10876 | 3.17e5 |
| CG9386 | DRSC16485 | – | reporter ratio raised past the hit cutoff (active) | reporter ratio raised past the hit cutoff | 9598 | 3.05e5 |
| CG18748 | DRSC15385 | – | – | – | 7330 | 5.07e5 |
| spas | DRSC15929 | – | – | – | 9480 | 5.93e5 |
| HDAC1 | DRSC08696 | – | – | – | 6444 | 3.33e5 |
| Diap1 | DRSC11404 | 3 | – | – | 4503 | 1.17e5 |
| ND-MWFE | DRSC06364 | – | – | – | 5707 | 3.53e5 |
| CG5554 | DRSC04513 | – | – | – | 5135 | 2.90e5 |
| Muc68D | DRSC10569 | – | – | – | 8663 | 4.14e5 |
| alpha4GT1 | DRSC00488 | – | – | – | 16387 | 3.60e5 |
| wcd | DRSC07051 | – | – | – | 8409 | 3.51e5 |
| Iyd | DRSC10614 | – | – | – | 5323 | 3.35e5 |
| Iyd | DRSC10615 | – | – | – | 5432 | 3.08e5 |

Entries listed so far whose gene name starts with I or i (2):
| predicted target | amplicon | siRNA reporter hit score | stable siRNA reporter change | miRNA reporter change | stable assay Renilla, run 1 (luminescence) | stable assay firefly, run 1 (luminescence) |
| --- | --- | --- | --- | --- | --- | --- |
| Iyd | DRSC10614 | – | – | – | 5323 | 3.35e5 |
| Iyd | DRSC10615 | – | – | – | 5432 | 3.08e5 |
